Measurements: PubChem BioAssay AID2685 (National Center for Advancing Translational Sciences (NCATS), 2010)
The other results are listed elsewhere or left out. These are further read-outs of the screen, such as a control signal, another cell line or another target. No call is given for them. The list favours compounds with an active or inconclusive main result. Potencies come from curve fits of mixed quality, noted in brackets.

Experiment: qHTS Assay for Lipid Storage Modulators in Drosophila S3 Cells;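 on cell number change: cells counted by Cell Tracker Red CMTPX staining in the red channel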
Conditions: BODIPY lipid droplet fluorescence, 18-24 h; for cell number change: measured here: cell count max response, cells fed with added oleic acid
How it was run: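 Drosophila S3 cells loaded with oleic acid (400 uM, as added) and compounds at several concentrations; lipid droplets imaged by 488-nm laser-scanning cytometry, 500–530 nm intensity and object ratio to cell channel. Percent activity normalized to 20 uM Triacsin C.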

[1] = measured here: cell number channel AC50, cells fed with added oleic acid
[2] = measured here: lipid fluorescence (Fed channel) AC50, cells fed with added oleic acid

SMILES	cell number change	AC50 [1]	AC50 [2]
COc1ccccc1NC(=O)CSC1=NC(=O)C(NC(C)=O)C(=O)N1 (stereo not drawn)	-26.7%	3.26 µM [falling, single point]	13 µM [falling, partial curve]
COc1ccc(/C=N\NC(=O)c2sccc2C)cc1Cn1nc(C)cc1C	4.99%		
CC1(C)CC(=O)c2c(Cc3ccccc3)n[nH]c2C1	19%	1.84 µM [rising, partial curve, poor fit]	
COc1ccccc1N(CC(O)Cn1ccnc1C)S(=O)(=O)c1ccc(C)cc1 (stereo not drawn)	-15.9%		2.59 µM [falling, full curve]
COc1ccc(-c2nc(SCC(=O)Nc3nccs3)c(-c3ccc(Cl)cc3)[nH]2)cc1	-34.2%	20.6 µM [falling, partial curve]	16.4 µM [falling, partial curve]
Cc1ccc(C)c(NC(=S)c2ccc3ccccc3n2)c1	-87.4%	23.1 µM [falling, single point]	29.1 µM [falling, single point]
COc1ccc(CCC(=O)NCCc2cn3c(C)csc3n2)cc1	40.6%	1.03 µM [rising, partial curve]	1.03 µM [rising, partial curve]
CCOC(=O)C1=C(c2ccccc2)NC(=O)NC1c1ccc(O)c(Cl)c1 (stereo not drawn)	-11.4%		
CCCCn1c2nc3ccccc3nc2c2c(=O)n(CCC)cnc21	16.4%		0.92 µM [rising, partial curve]
Cc1cccc(C)c1NC(=O)CN(C)C(C)C(=O)NCC(=O)Nc1ccc(F)c(F)c1F (stereo not drawn)	-16%		
CCOC(=O)COn1c(=O)c(-c2ccc(C)cc2)[n+]([O-])c2ccccc21	-0.741%		0.082 µM [rising, partial curve, poor fit]
CC1(C#N)c2ccccc2C(Br)=CN1C(=O)c1ccccc1 (stereo not drawn)	-6.34%		23.1 µM [rising, single point]
CCOc1nc(NC(=O)NS(=O)(=O)Oc2ccccc2Cl)nc(-c2ccccc2)n1		0.366 µM [rising, full curve]	8.2 µM [rising, partial curve]
CCOC(=O)[C@@H]1[C@H]2COc3ccccc3[C@H]2N2C(=O)N(c3ccccc3)C(=O)[C@]12C	-17.5%		
COc1cccc(CNC(=O)Cn2c(=O)oc3cc(S(=O)(=O)N4CCCCC4)ccc32)c1	18.4%		16.4 µM [falling, partial curve, poor fit]
COc1ccc(C2(O)CC3CCC(C2)N3c2cc(C)nc(-c3ccccc3)n2)cc1 (stereo not drawn)	-18.5%		
COc1ccccc1C(=O)N/C(=C\c1cn(S(=O)(=O)N(C)C)c2ccccc12)C(=O)N1CCCCC1			0.58 µM [rising, single point]
COc1ccccc1Nc1nc(N)nc(CSC(=S)N2CCN(c3ccccc3)CC2)n1			13 µM [rising, partial curve, poor fit]
CCOc1ccccc1CNC(c1ccccc1)c1ccccc1	13.2%		6.51 µM [rising, partial curve]

Two entries drawn at random from those above:
SMILES	cell number change	AC50 [1]	AC50 [2]
CC1(C#N)c2ccccc2C(Br)=CN1C(=O)c1ccccc1 (stereo not drawn)	-6.34%		23.1 µM [rising, single point]
COc1ccccc1Nc1nc(N)nc(CSC(=S)N2CCN(c3ccccc3)CC2)n1			13 µM [rising, partial curve, poor fit]

The list continues:

SMILES	cell number change	AC50 [1]	AC50 [2]
COc1ccc(NS(=O)(=O)c2cc(NC(=O)CNC(=O)c3ccc(C)s3)ccc2Cl)cc1	74.2%	2.91 µM [rising, partial curve, poor fit]	7.31 µM [rising, partial curve]
O=C(CSc1n[nH]c(-c2ccccn2)n1)Nc1cccc(Cl)c1	-30.3%	13 µM [falling, partial curve, poor fit]	
CC1=NN=C(c2ccccc2)C(c2c[nH]c3ccccc23)N1O (stereo not drawn)	18.7%		32.6 µM [rising, single point]
N#Cc1nc(Cc2cccc3ccccc23)oc1NCc1ccco1	-13.5%		0.082 µM [rising, full curve, poor fit]
COc1ccccc1NC(=O)C1=C(C)NC(=O)NC1c1cccc(OC)c1OC (stereo not drawn)	-19.1%		29.1 µM [falling, single point]
CN(C(=O)/C=C/c1ccccc1)C1CCS(=O)(=O)C1 (stereo not drawn)	13%		29.1 µM [falling, single point]
O=S(=O)(c1cccc(-c2cn3cc(Cl)ccc3n2)c1)N1CCOCC1	-5.31%		
COC(=O)c1cc(C(=O)NCc2ccccc2)c(=O)[nH]c1C	-141%		20.6 µM [falling, partial curve]
CCN(CC(=O)Nc1cc(Cl)ccc1C)C(=O)C1CC1	-0.684%		20.6 µM [rising, partial curve, poor fit]
CC(=O)Nc1ccc(NC(=O)C2CCCN(S(=O)(=O)c3ccc(-n4cnnn4)cc3)C2)cc1 (stereo not drawn)	11.7%		0.731 µM [rising, full curve]
COc1ccc(CN(C(=O)Cc2c[nH]c3ccccc23)C(C(=O)NC2CCCCC2)c2ccc(C)o2)cc1 (stereo not drawn)	-102%	29.1 µM [falling, single point]	2.06 µM [falling, partial curve]
O=C(O)c1ccc(NC(=O)c2ccccc2NC(=O)c2cccc(Br)c2)cc1	7.92%		29.1 µM [rising, single point]
Cc1ccsc1/C=N/NC(=O)c1nnn(-c2nonc2N)c1CSc1ccccc1	15.6%		3.26 µM [falling, partial curve]
CC1=C[C@H]2Cc3cc(C)cc(C)c3S(=O)(=O)[C@@H]2C=C1	16%		1.64 µM [rising, full curve]
CC(Oc1ccc(Cl)cc1)c1ccnn1S(=O)(=O)c1ccccc1 (stereo not drawn)	-38.9%	16.4 µM [falling, single point]	29.1 µM [falling, single point]
CC1CCN(CCOCCOc2ccc(Br)cc2Cl)CC1	-1.82%		0.517 µM [falling, full curve, poor fit]
COc1cc(C(=O)NNC(=O)c2ccoc2C)cc(OC)c1OC	-4.69%		0.082 µM [falling, full curve, poor fit]
O=C(Nc1cc2c3c(c1)CC(=O)N3CCC2)c1c(F)cccc1F		1.3 µM [rising, full curve]	0.92 µM [rising, partial curve]
CN(c1ccc(C(=O)NCC2CCCO2)cc1)S(=O)(=O)c1ccccc1 (stereo not drawn)	1.97%		

SMILES	cell number change	AC50 [1]	AC50 [2]
COc1ccccc1NC(=O)CN(Cc1ccco1)C(=O)c1cccs1	22.2%		
Cc1cccc2nc(C(F)(F)F)nc(=O)n12	-7.82%		0.0058 µM [rising, full curve, poor fit]
CCOc1cc(NC(=O)C2CC2)c(OCC)cc1NC(=O)c1ccccn1	14.9%		4.11 µM [rising, partial curve, poor fit]
Cn1nc(CC(=O)Nc2ccc3c(c2)CCC3)c2ccccc2c1=O	-1.47%	3.66 µM [falling, partial curve]	0.0291 µM [rising, full curve, poor fit]
Cc1ccc(C(C(=O)Nc2ccc3c(c2)OCO3)N(C)C(=O)/C=C\c2ccc3c(c2)OCO3)cc1 (stereo not drawn)	-10.4%		2.06 µM [rising, partial curve, poor fit]
CCN(CC(=O)Nc1ccc(NC(C)=O)cc1)C(=O)Cc1c(Cl)cccc1Cl	9.83%		29.1 µM [rising, single point]
CCOC(=O)Cc1cc(=O)[nH]c(/N=C(/NC(=O)c2ccccc2)Nc2ccccc2C(F)(F)F)n1	-75%	1.46 µM [falling, partial curve]	
O=C(NCc1ccncc1)c1ccc(N2CCCC2)c([N+](=O)[O-])c1	-57%	29.1 µM [falling, single point]	
CC(C)NC(=S)Nc1cccc2cnccc12	14.1%		16.4 µM [rising, partial curve]
O=C(COC(=O)c1ccccc1NC(=O)c1ccco1)NC1CC1	114%	0.103 µM [rising, full curve, poor fit]	0.13 µM [rising, full curve, poor fit]
Cc1nc2ccc(S(=O)(=O)NCC(=O)N3CCCC(C)C3)cc2s1 (stereo not drawn)	-0.114%		23.1 µM [falling, single point]
CCN(Cc1ccccc1)S(=O)(=O)c1cc(C(=O)NCCCN(C)C)ccc1OC	-57.4%	20.6 µM [falling, partial curve, poor fit]	
O=C(OCC(=O)N1CCN(C(=O)c2ccco2)CC1)c1cc(-c2ccco2)nc2ccccc12	-8.05%		0.82 µM [falling, single point]
c1ccc2nc(-c3ccc(N4CCOCC4)cc3)ccc2c1		1.84 µM [rising, partial curve]	2.06 µM [rising, partial curve]
CC(=O)Nc1nonc1-c1nc2ccccc2n1CCC(C)C	10.9%		29.1 µM [rising, single point]
COc1ccc(-c2noc(N3CCC(C(=O)Nc4ccccc4Cl)CC3)n2)cc1	11.8%		6.51 µM [rising, partial curve, poor fit]
Cc1n[nH]c(=S)n1/N=C/c1ccc(OCc2ccc(Cl)cc2Cl)cc1	-30.7%	4.11 µM [falling, full curve, poor fit]	4.11 µM [rising, partial curve]
N#Cc1ccccc1OCC(=O)OCC(=O)NC1CCS(=O)(=O)C1 (stereo not drawn)	-9.66%		6.51 µM [rising, single point]
O=c1cc(-c2ccccc2)[nH]c2nc3ccccc3n12			0.58 µM [falling, single point]

Part of the list above with just AC50 [1] and AC50 [2].
SMILES	AC50 [1]	AC50 [2]
CCOc1cc(NC(=O)C2CC2)c(OCC)cc1NC(=O)c1ccccn1		4.11 µM [rising, partial curve, poor fit]
CC(=O)Nc1nonc1-c1nc2ccccc2n1CCC(C)C		29.1 µM [rising, single point]
